At least one structure is not confirmed: it was looked up by name or label, or the drawing left a doubt.
Tested on: 3NP-lesioned mice
Experiment: 3-NP induced Huntington's disease model in mice
Type: in vivo, mouse
Conditions: 30 mg/kg
Protocol: Striatal neurodegeneration was induced in 16-week-old C57BL/6 male mice (Harlan Ibérica, Barcelona, Spain) by six intraperitoneal (i.p.) injections of 3-nitropropionic acid (3NP) (30 mg/kg; one injection each every 12 h prepared in PBS). 3NP-treated animals and the non-lesioned control group (injected with PBS) were used for pharmacological studies with Betulinic acid (30 mg/Kg) and compound VII (30 mg/Kg). Treatments consisted of 5 i.p. injections every 24 h with […] the test compounds or vehicle (10% DMSO plus 6.2% Tween 20 in saline buffer), with the first injection 24 h prior the first 3NP injection and the rest of doses 30 min before the injections of 3NP. Mice were subjected to behavioral tests for determining their neurological status. General locomotor activity, the hindlimb clasping and dystonia, and the truncal dystonia were evaluated. All behavioral tests were conducted prior to drug injections to avoid acute effects of the compounds under investigation. […] The right hemisphere was used to dissect the striatum, which was quickly frozen in RNAlater (Sigma-Aldrich, Germany) to analyzed inflammatory markers were by Real Time PCR. […]
For this test, intoxicated mice with 3-Nitropropionic acid (3-NP) were used for determining microglia activation and astrogliosis including a Control with non-intoxicated mice (3NP, 3NP+BA and 3NP+Compound VII). Iba-1 and glial fibrillary acidic protein (GFAP) expression were determined by immunostaining of brain sections through the different group of mice. Quantification of the different markers was performed with Image J software.
Total RNA was isolated from striata (3NP model) using RNeasy Lipid Tissue Mini Kit (Qiagen, GmbH). The total amount of RNA extracted was quantitated by spectrometry at 260 nm and its purity from the ratio between the absorbance values at 260 and 280 nm. […] The iQ™ SYBR Green Supermix (Bio-Rad) was used to quantify mRNA levels for COX-2, IL-6, IL-1β, and iNOS. […] Expression levels were calculated using the 2^−ΔΔCt method.

## C=C(C)[C@@H]1CC[C@]2(C(=O)O)CC[C@]3(C)[C@H](CC[C@@H]4[C@@]5(C)CC[C@H](O)C(C)(C)[C@@H]5CC[C@]43C)[C@@H]12 [Betulinic acid, reference compound]
Compared with 3NP+Vehicle
  mRNA expression for COX-2, IL-1β, IL-6 and iNOS in striatum: also inhibited the expression of inflammatory markers
i.p.
  clinical symptoms (behavioral score) induced by 3-NP intoxication: showed some neuroprotective activity although to a lesser extent
  reduction in Nissl-stained cells (neuronal death) in striatum caused by 3NP: not by Betulinic acid

From patent US10766855B2, “Hydroxamate triterpenoid derivatives” (VIVACELL BIOTECHNOLOGY ESPANA S.L., priority 2016, dated 2020)
